Binding data for one molecule are collected here from PMC3527619.

The assay addresses Tubulin purified from bovine brain, polymerised to microtubules in vitro (bovine). Put plainly: anti-His immunofluorescence on in vitro assembled microtubules (DIC microscopy); MTs assembled with 5 µM Centaurin-α2, without or with 30 minutes on ice, fixed with 0.5% glutaraldehyde on poly-L-lysine slides; anti-His antibody; both purified.

Results are given in words; binding and its absence hold for the method and conditions named. Binding calls can cover weak binding; strength is not graded here. Sequences can lack the tags named with a protein.

B1: His-tagged Centaurin-α2 (recombinant, pET-Centα2) (protein, UniProt Q9NPF8 1-381)
chain: MGDRERNKKRLLELLRAPDTGNAHCADCGAADPDWASYKLGIFICLNCCGVHRNFPDISRVKSVRLDFWDDSIVEFMIHNGNLRVKAKFEARVPAFYYIPQANDCLVLKEQWIRAKYERREFMADGETISLPGNREGFLWKRGRDNSQFLRRKFVLLAREGLLKYFTKEQGKSPKAVISIKDLNATFQTEKIGHPHGLQITYRRDGHTRNLFVYHESGKEIVDWFNALRAARLQYLKMAFPELPESELVPFLTRNYLKQGFMEKTGPKQKEPFKKRWFALDCHERRLLYYKNPLDAFEQGQVFLGNKEQGYEAYEDLPKGIRGNRWKAGLTIVTPERRFVLTCPSEKEQQEWLESLRGVLSSPLTPLNRLTASTESGRSSR
B1: the binding entry is on record as “binds”.
